Results are given in words; binding and its absence hold for the method and conditions named. Binding seen in cells or lysates may run through a third protein. Some results given as binding are weak or reduced against the parent protein; the word gives no strength.
Molecular target: T1, SF1 (branchpoint binding protein) (human (endogenous in 293A-TOA)), Q15637
T1 chain: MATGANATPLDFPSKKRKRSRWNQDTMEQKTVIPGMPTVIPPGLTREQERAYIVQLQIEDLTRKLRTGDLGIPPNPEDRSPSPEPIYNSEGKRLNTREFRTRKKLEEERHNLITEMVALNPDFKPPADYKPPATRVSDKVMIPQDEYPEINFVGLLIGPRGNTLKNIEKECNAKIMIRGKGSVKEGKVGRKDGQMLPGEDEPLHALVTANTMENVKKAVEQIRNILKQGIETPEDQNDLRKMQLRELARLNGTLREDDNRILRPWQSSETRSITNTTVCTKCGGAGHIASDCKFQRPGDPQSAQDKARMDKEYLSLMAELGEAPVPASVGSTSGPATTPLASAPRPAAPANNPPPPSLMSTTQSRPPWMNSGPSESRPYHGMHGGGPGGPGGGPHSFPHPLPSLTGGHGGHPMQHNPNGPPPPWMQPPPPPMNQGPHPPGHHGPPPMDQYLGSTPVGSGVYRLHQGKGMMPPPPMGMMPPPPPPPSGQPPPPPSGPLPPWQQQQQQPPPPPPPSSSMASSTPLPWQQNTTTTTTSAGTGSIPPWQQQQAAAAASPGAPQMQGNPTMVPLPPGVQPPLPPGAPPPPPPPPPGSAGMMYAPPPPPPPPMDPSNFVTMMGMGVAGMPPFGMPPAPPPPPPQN
Assay: co-IP; SF1 immunoprecipitated with mouse anti-SF1 antibodies and protein A magnetic beads from lysate of 293A-TOA cells treated with DMSO, TG or OSMI-1; lysate treated with RQ1 DNase and RNase A; 100 mM NaCl, 2.5 mM MgCl2, 10 mM Tris-HCl pH 7.5, 0.5% IGEPAL CA-630; 2 hr at 4°C; blot probed with rabbit anti-SFSWAP
Conditions: remark: other sources report otherwise

B1: SFSWAP (splicing factor, suppressor of white-apricot homolog), Q12872 1-951 (protein)
chain: MYGASGGRAKPERKSGAKEEAGPGGAGGGGSRVELLVFGYACKLFRDDERALAQEQGQHLIPWMGDHKILIDRYDGRGHLHDLSEYDAEYSTWNRDYQLSEEEARIEALCDEERYLALHTDLLEEEARQEEEYKRLSEALAEDGSYNAVGFTYGSDYYDPSEPTEEEEPSKQREKNEAENLEENEEPFVAPLGLSVPSDVELPPTAKMHAIIERTASFVCRQGAQFEIMLKAKQARNSQFDFLRFDHYLNPYYKFIQKAMKEGRYTVLAENKSDEKKKSGVSSDNEDDDDEEDGNYLHPSLFASKKCNRLEELMKPLKVVDPDHPLAALVRKAQADSSTPTPHNADGAPVQPSQVEYTADSTVAAMYYSYYMLPDGTYCLAPPPPGIDVTTYYSTLPAGVTVSNSPGVTTTAPPPPGTTPLPPPTTAETSSGATSTTTTTSALAPVAAIIPPPPDVQPVIDKLAEYVARNGLKFETSVRAKNDQRFEFLQPWHQYNAYYEFKKQFFLQKEGGDSMQAVSAPEEAPTDSAPEKPSDAGEDGAPEDAAEVGARAGSGGKKEASSSKTVPDGKLVKASFAPISFAIKAKENDLLPLEKNRVKLDDDSDDDEESKEGQESSSSAANTNPAVAPPCVVVEEKKPQLTQEELEAKQAKQKLEDRLAAAAREKLAQASKESKEKQLQAERKRKAALFLQTLKNPLPEAEAGKIEESPFSVEESSTTPCPLLTGGRPLPTLEVKPPDRPSSKSKDPPREEEKEKKKKKHKKRSRTRSRSPKYHSSSKSRSRSHSKAKHSLPSAYRTVRRSRSRSRSPRRRAHSPERRREERSVPTAYRVSRSPGASRKRTRSRSPHEKKKKRRSRSRTKSKARSQSVSPSKQAAPRPAAPAAHSAHSASVSPVESRGSSQERSRGVSQEKEAQISSAIVSSVQSKITQDLMAKVRAMLAASKNLQTSAS
binding: binds
